Measured values: patent US20250304655A1
No constants are given. Whether binding was seen depends on the method and setting. Some entries that bind do so weakly or less than the wild type.

Protein sequences, listed by entry. Tags and fused reporters are not part of them. Lines headed by an entry give the natural chain unless they say otherwise; changes in a name come on top.
UniProt Q07954: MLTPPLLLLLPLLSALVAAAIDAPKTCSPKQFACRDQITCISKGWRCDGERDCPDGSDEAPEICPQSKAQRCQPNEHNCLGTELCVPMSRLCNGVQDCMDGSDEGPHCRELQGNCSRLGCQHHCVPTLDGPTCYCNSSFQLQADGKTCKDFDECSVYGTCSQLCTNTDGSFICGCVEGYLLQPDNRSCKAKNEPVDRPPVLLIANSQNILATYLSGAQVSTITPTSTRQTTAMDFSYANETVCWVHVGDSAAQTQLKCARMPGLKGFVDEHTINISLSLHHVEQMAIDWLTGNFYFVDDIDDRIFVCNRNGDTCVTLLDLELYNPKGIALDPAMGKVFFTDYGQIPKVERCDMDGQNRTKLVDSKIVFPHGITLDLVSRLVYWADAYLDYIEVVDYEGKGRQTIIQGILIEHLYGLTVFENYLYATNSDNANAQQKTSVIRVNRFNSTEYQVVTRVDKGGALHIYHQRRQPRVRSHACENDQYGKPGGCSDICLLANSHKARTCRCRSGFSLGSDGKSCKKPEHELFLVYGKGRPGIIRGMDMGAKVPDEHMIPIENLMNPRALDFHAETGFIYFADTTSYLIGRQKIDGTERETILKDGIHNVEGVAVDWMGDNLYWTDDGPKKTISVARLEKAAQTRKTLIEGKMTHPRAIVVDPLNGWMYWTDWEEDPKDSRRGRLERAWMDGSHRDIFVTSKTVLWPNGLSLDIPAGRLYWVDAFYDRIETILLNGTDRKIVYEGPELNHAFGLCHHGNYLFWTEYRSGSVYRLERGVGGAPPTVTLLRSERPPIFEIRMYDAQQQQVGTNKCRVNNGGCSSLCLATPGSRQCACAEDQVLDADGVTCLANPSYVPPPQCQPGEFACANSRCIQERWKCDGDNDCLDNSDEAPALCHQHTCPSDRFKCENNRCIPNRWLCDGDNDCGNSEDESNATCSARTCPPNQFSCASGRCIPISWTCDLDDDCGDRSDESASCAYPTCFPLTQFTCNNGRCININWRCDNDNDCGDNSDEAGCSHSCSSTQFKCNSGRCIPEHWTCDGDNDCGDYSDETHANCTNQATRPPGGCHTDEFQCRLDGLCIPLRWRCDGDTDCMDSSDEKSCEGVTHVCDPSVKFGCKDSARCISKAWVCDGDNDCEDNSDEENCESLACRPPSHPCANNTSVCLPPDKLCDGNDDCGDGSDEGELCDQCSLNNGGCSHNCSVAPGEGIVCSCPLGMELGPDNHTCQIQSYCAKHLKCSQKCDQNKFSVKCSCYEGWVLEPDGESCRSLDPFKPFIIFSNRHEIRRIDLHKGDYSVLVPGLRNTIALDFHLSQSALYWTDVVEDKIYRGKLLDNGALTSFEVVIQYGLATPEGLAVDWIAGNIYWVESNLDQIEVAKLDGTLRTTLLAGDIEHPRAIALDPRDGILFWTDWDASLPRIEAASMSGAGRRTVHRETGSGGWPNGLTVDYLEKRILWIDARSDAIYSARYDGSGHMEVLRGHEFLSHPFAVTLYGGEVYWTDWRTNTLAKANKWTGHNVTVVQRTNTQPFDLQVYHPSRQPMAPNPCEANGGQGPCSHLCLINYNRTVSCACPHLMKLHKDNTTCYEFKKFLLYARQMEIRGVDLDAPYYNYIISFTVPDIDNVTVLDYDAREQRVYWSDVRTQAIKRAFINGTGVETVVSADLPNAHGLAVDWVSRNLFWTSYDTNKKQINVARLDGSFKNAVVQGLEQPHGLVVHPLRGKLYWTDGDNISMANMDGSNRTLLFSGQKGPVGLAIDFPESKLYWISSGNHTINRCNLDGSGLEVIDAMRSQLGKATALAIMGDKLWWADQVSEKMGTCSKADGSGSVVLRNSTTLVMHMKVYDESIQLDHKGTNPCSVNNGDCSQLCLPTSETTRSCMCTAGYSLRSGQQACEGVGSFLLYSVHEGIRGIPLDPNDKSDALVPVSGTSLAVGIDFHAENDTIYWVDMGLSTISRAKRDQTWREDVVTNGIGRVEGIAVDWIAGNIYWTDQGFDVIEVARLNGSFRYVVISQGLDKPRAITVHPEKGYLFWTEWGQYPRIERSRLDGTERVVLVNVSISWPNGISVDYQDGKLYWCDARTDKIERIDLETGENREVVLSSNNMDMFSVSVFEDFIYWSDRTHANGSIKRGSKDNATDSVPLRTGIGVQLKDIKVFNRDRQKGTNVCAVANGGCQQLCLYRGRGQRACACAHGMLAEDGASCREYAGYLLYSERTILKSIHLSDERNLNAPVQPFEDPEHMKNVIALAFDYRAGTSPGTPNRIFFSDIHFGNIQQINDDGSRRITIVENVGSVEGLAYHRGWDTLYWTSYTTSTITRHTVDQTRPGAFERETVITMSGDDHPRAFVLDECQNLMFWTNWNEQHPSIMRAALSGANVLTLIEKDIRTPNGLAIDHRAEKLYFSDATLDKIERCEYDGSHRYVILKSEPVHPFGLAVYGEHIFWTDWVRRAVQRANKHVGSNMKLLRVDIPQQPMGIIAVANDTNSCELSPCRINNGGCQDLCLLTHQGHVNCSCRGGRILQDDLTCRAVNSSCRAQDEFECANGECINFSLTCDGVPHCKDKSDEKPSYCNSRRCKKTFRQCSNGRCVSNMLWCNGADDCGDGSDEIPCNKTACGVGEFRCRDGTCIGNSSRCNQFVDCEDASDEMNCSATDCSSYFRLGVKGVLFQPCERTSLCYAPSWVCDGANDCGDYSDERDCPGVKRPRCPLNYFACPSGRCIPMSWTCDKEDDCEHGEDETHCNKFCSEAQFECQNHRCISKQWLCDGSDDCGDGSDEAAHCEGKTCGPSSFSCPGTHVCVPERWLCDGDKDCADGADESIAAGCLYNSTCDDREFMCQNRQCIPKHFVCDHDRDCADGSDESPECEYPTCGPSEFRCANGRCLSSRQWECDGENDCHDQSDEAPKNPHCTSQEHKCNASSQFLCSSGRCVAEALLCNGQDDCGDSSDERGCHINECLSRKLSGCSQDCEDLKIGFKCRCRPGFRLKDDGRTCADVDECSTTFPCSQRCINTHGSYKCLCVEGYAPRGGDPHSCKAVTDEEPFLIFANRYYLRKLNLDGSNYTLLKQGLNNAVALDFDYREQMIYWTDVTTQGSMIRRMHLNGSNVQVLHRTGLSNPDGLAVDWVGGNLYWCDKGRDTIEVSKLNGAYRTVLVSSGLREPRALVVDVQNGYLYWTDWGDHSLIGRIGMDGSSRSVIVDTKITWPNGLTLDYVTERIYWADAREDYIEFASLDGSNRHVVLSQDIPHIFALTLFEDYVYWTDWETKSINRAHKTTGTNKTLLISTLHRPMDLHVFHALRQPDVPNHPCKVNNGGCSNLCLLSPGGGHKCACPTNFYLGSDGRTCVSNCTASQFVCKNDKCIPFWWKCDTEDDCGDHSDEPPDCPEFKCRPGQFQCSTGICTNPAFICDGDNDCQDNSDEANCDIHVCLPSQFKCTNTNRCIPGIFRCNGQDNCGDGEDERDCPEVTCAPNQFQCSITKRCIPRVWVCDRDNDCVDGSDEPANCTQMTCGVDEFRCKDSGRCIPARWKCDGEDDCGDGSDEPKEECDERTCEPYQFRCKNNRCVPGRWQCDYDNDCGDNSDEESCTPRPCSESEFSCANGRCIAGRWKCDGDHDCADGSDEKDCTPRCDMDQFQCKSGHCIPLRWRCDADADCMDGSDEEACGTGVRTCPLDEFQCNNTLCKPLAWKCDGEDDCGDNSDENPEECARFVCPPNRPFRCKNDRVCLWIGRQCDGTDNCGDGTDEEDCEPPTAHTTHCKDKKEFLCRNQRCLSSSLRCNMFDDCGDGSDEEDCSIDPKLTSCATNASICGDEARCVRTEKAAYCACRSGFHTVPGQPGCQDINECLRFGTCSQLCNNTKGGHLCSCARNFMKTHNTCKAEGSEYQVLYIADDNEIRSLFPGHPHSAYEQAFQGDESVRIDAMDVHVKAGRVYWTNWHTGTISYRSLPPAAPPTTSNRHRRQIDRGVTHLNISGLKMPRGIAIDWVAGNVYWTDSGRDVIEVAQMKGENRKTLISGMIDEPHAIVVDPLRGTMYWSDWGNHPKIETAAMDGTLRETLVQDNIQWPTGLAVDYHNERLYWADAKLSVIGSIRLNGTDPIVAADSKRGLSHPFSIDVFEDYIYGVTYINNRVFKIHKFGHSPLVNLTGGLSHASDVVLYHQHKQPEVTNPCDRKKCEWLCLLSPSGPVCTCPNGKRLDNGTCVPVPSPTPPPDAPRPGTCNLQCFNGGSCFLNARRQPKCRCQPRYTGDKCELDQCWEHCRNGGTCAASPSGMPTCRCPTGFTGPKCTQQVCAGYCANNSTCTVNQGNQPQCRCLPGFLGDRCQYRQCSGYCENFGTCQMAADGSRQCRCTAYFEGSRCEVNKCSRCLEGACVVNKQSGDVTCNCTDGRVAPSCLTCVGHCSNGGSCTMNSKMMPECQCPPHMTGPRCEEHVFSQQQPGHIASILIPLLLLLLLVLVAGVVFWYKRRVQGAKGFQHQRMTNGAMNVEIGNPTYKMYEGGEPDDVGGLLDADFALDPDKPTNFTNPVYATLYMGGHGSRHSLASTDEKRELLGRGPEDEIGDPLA
UniProt P02790: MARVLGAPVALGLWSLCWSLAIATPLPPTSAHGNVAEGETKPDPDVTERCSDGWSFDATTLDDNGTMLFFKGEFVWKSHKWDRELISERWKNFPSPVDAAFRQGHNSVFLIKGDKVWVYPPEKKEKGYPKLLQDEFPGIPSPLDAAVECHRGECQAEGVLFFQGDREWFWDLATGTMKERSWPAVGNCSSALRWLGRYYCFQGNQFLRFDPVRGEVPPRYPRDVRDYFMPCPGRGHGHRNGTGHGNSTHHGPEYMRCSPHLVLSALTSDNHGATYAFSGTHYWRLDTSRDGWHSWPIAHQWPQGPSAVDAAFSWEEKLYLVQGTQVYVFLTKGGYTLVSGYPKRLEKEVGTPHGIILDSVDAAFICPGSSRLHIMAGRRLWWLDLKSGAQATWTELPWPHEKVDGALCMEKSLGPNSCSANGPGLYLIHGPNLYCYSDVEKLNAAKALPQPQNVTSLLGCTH

Target: biotinylated LRP1 Cluster III (human) (UniProt Q07954)
Experiment: BLI, biotinylated LRP1 cluster III immobilised

Row | binding | Substance
1 | binds | HuHemopexin-HuHaptoglobin2FS(148-406)-8His (from UniProt P02790 24-462; P00738 162-406)
2 | binds | heme:Hx-Hp complex (from UniProt P02790 24-462; P00738 162-406)
